# Measured values as given in the supplement of paper PMC4604168 (melanoma cell lines).
# This is one part of the list. Many values rest on one well or one pass, so single values are uncertain.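 Imaging used 1,536-well plates; nuclei positive for cleaved PARP by antibody were divided by total DNA-stained nuclei to yield the apoptosis fraction. Doses for screening kept most cells viable, and cell lines differ markedly in resting and induced cleaved-PARP levels.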
# Columns and labels:
# Assay in all cases: cleaved PARP positive nuclei fraction relative to DMSO control; melanoma cells; higher = more apoptosis
# Details in all cases: library dose: low library concentration; 72 h
# MZ2-MEL = tested on: MZ2-MEL
# MeWo = tested on: MeWo
# RPMI7951 = tested on: RPMI7951
# RVH-421 = tested on: RVH-421
# SkMel28 = tested on: SkMel28
# SkMel30 = tested on: SkMel30
# SkMel5 = tested on: SkMel5
# UACC257 = tested on: UACC257
# UACC62 = tested on: UACC62
# WM115 = tested on: WM115
# WM1716 = tested on: WM1716
# WM1745 = tested on: WM1745
# WM3526 = tested on: WM3526
# WM3619 = tested on: WM3619
# WM451Lu = tested on: WM451Lu
SMILES,cleaved PARP positive nuclei fraction (MZ2-MEL),cleaved PARP positive nuclei fraction (MeWo),cleaved PARP positive nuclei fraction (RPMI7951),cleaved PARP positive nuclei fraction (RVH-421),cleaved PARP positive nuclei fraction (SkMel28),cleaved PARP positive nuclei fraction (SkMel30),cleaved PARP positive nuclei fraction (SkMel5),cleaved PARP positive nuclei fraction (UACC257),cleaved PARP positive nuclei fraction (UACC62),cleaved PARP positive nuclei fraction (WM115),cleaved PARP positive nuclei fraction (WM1716),cleaved PARP positive nuclei fraction (WM1745),cleaved PARP positive nuclei fraction (WM3526),cleaved PARP positive nuclei fraction (WM3619),cleaved PARP positive nuclei fraction (WM451Lu)
"O=C(Nc1cccc(Cl)c1)Nc1ncc(CCNc2ncnc3ccsc23)s1 + CCCCCCCCCCCC1=C(O)C(=O)C=C(O)C1=O [Embelin] (first compound 0.0008 µM, partner dose 1.2 µM)",23.5%,26.3%,62.8%,127%,175%,50.3%,82.9%,41.3%,117%,66%,23.4%,117%,66.3%,72.6%,49%
"O=C(Nc1cccc(Cl)c1)Nc1ncc(CCNc2ncnc3ccsc23)s1 + Oc1nc(-c2ccc(C(F)(F)F)cc2)nc2c1CSCC2 [XAV939] (first compound 0.0008 µM, partner dose 2 µM)",88.8%,52.5%,140%,59%,146%,94%,132%,223%,68.9%,126%,462%,131%,130%,79.7%,240%
"C[C@]1(c2nc3c(C(N)=O)cccc3[nH]2)CCCN1 [Veliparib] + CCCCCCCCCCCC1=C(O)C(=O)C=C(O)C1=O [Embelin] (first compound 1.4 µM, partner dose 1.2 µM)",91.9%,94.7%,43%,78.6%,144%,19.1%,41.9%,95.2%,48.2%,49.3%,75%,127%,58.5%,65.3%,48.7%
"OCCn1cc(-c2cnc3nnn(Cc4ccc5ncccc5c4)c3n2)cn1 + CCc1ccc(CCOc2ccc(CC3SC(=O)NC3=O)cc2)nc1 [pioglitazone] (first compound 1 µM, partner dose 2 µM)",128%,51%,47.1%,153%,113%,313%,56.6%,51.2%,159%,57.7%,69%,119%,143%,508%,86.9%
"CC(C)(C)c1cnc(CSc2cnc(NC(=O)C3CCNCC3)s2)o1 + O=c1cc(-c2cccc3c2Sc2ccccc2S3)oc(N2CCOCC2)c1 [KU55933] (first compound 0.01 µM, partner dose 1 µM)",106%,29.9%,91.6%,117%,257%,49.5%,85.5%,157%,143%,77.3%,151%,99.9%,75%,166%,181%
"C[C@]1(c2nc3c(C(N)=O)cccc3[nH]2)CCCN1 [Veliparib] + CCN(CC)CCCCNc1ncc2cc(-c3cc(OC)cc(OC)c3)c(NC(=O)NC(C)(C)C)nc2n1 [PD173074] (first compound 1.4 µM, partner dose 0.1 µM)",114%,69.4%,34.6%,53.4%,39.6%,73.2%,59.7%,131%,95.7%,227%,110%,114%,113%,87%,20.5%
"Cn1c(Nc2ccc(C(F)(F)F)cc2)nc2cc(Oc3ccnc(-c4ncc(C(F)(F)F)[nH]4)c3)ccc21 + O=C(O)C(=O)Nc1sc2c(c1C(=O)O)CCNC2 [TCS401] (first compound 0.08 µM, partner dose 1.66667 µM)",224%,142%,68%,110%,178%,32.3%,80.8%,1000%,75.5%,890%,199%,132%,151%,107%,70.7%
"COCC[n+]1c2c(n(Cc3cnccn3)c1C)C(=O)c1ccccc1C2=O + COc1ccc2c(c1)CCC1C2CCC2(C)C(NCCCCCCN3C(=O)C=CC3=O)CCC12 [U73122] (first compound 0.0004 µM, partner dose 0.4 µM)",111%,51.9%,93.5%,56.4%,110%,66.5%,86.3%,313%,66.8%,40.9%,102%,90.5%,68.1%,73.8%,72.4%
"C=CCn1c(=O)c2cnc(Nc3ccc(N4CCN(C)CC4)cc3)nc2n1-c1cccc(C(C)(C)O)n1 + COc1cc2ncnc(Nc3ccc(Oc4ccccc4)cc3)c2cc1OC [SrcI1] (first compound 0.02 µM, partner dose 2 µM)",60.6%,87.9%,73.5%,20.7%,177%,102%,34.9%,112%,113%,274%,37.6%,117%,67.1%,180%,27.1%
"O=C(Nc1cccc(Cl)c1)Nc1ncc(CCNc2ncnc3ccsc23)s1 + COc1cc(N2CCC(N3CCN(C)CC3)CC2)ccc1Nc1ncc(Cl)c(Nc2ccccc2S(=O)(=O)C(C)C)n1 [NVP-TAE684] (first compound 0.0008 µM, partner dose 0.08 µM)",64.1%,125%,158%,14.6%,75.1%,346%,35.5%,94.2%,78%,412%,74%,122%,137%,91.7%,121%
"Cc1cc(N2CCOCC2)cc2[nH]c(-c3c(NC[C@@H](O)c4cccc(Cl)c4)cc[nH]c3=O)nc12 + O=c1cc(-c2cccc3c2Sc2ccccc2S3)oc(N2CCOCC2)c1 [KU55933] (first compound 0.2 µM, partner dose 1 µM)",164%,41.8%,91.4%,95.7%,159%,66.6%,30.7%,95.7%,135%,134%,131%,111%,84.9%,107%,152%
"Cc1ccc(NC(=O)c2cccc(N(C)C)c2)cc1NC(=O)c1ccc(O)cc1 + O=C(O)C(=O)Nc1sc2c(c1C(=O)O)CCNC2 [TCS401] (first compound 2 µM, partner dose 1.66667 µM)",116%,151%,92.3%,101%,55%,74.6%,62%,166%,39.9%,236%,115%,120%,82.1%,75.4%,45.5%
"CC(C)(C)c1cnc(CSc2cnc(NC(=O)C3CCNCC3)s2)o1 + Cc1cc([N+](=O)[O-])ccc1NS(=O)(=O)c1cc(Cl)ccc1Cl [FH535] (first compound 0.01 µM, partner dose 1 µM)",142%,27.5%,72.9%,56.5%,89%,167%,67.8%,86.8%,48.9%,158%,29.8%,104%,87.7%,87.4%,61.7%
"COc1cc(Nc2ncc(F)c(Nc3ccc4c(n3)NC(=O)C(C)(C)O4)n2)cc(OC)c1OC [Tamatinib] + CC(C)CCN1c2nc(Nc3cc(F)c(O)c(F)c3)ncc2N(C)C(=O)C1C [BID1870] (first compound 0.4 µM, partner dose 0.2 µM)",108%,57.4%,46.1%,17.6%,153%,282%,168%,260%,193%,62.4%,98.3%,145%,82.7%,100%,69.9%
"COc1cc(Nc2ncc(F)c(Nc3ccc4c(n3)NC(=O)C(C)(C)O4)n2)cc(OC)c1OC [Tamatinib] + O=c1cc(-c2cccc3c2Sc2ccccc2S3)oc(N2CCOCC2)c1 [KU55933] (first compound 0.4 µM, partner dose 1 µM)",112%,74.9%,92.5%,59.2%,73.2%,102%,29.1%,239%,183%,198%,79.3%,126%,86.4%,206%,68%
"COCC[n+]1c2c(n(Cc3cnccn3)c1C)C(=O)c1ccccc1C2=O + Oc1cc(-c2nc(-c3ccccc3)[nH]c2-c2ccncc2)ccc1Cl [L779450] (first compound 0.0004 µM, partner dose 0.2 µM)",489%,117%,258%,32.6%,74.1%,29.5%,191%,147%,151%,153%,122%,109%,259%,142%,86.8%
"Cc1nc(Nc2ncc(C(=O)Nc3c(C)cccc3Cl)s2)cc(N2CCN(CCO)CC2)n1 [dasatanib] + CC(C)CCN1c2nc(Nc3cc(F)c(O)c(F)c3)ncc2N(C)C(=O)C1C [BID1870] (first compound 0.004 µM, partner dose 0.2 µM)",280%,159%,143%,56.9%,171%,69.8%,89.3%,195%,64.5%,217%,154%,136%,387%,94.2%,60%
"O=C(CCCCCCC(=O)Nc1ccccc1)NO [vorinostat] + O=c1cc(-c2cccc3c2Sc2ccccc2S3)oc(N2CCOCC2)c1 [KU55933] (first compound 0.08 µM, partner dose 1 µM)",29.1%,120%,87.7%,19.1%,305%,208%,29%,86.7%,38.7%,122%,41.8%,87.9%,158%,82.7%,48.4%
"Cc1ccc(NC(=O)c2cccc(N(C)C)c2)cc1NC(=O)c1ccc(O)cc1 + Cc1cc([N+](=O)[O-])ccc1NS(=O)(=O)c1cc(Cl)ccc1Cl [FH535] (first compound 2 µM, partner dose 1 µM)",53.3%,28.1%,78.2%,97%,82.1%,164%,73.8%,73.6%,111%,93.2%,52.4%,87.7%,70.6%,94.4%,78.9%
"NC(=O)Nc1cc(-c2cccc(F)c2)sc1C(=O)N[C@H]1CCCNC1 + O=C1NC(=O)/C(=C/c2ccc(-c3ccc(F)cc3O)o2)S1 [AS252424] (first compound 0.02 µM, partner dose 1 µM)",188%,57.6%,176%,24.2%,66.6%,33.6%,103%,93.6%,32.6%,160%,154%,114%,91.2%,123%,263%
